# Measured values as given in PubChem BioAssay AID504467 (National Center for Advancing Translational Sciences (NCATS), 2011).
# In all, about 330,000 compounds went through this assay and about 7,700 (2.3%) were called active. Calls follow the shape of the dose curve; as a rule, active = well fitted inhibition curve with a large enough effect; inconclusive = small, poorly fitted or top-dose-only effect, or effect the other way; inactive = flat fitted curve, though single readings scatter. The inconclusive results got no clear call from the source. Potencies beside an inconclusive call are fits to weak or partial responses and may not hold up.
# Assay: qHTS screen for small molecules that inhibit ELG1-dependent DNA repair in human embryonic kidney (HEK293T) cells expressing luciferase-tagged ELG1; also: nearly all actives have a fitted effect of over 55% in size
# Conditions: HEK293T ELG1-luciferase reporter, luminescence, 16 h, DNA damage induced by 5-fluorouridine; series mostly up to 46.1 µM
# From the text: NIH Molecular Libraries Probe Production Network [MLPCN] NIH Chemical Genomics Center [NCGC] MLPCN Grant: 1 R03 MH092164-01 Assay Provider: Kyungjae Myung, NHGRI, NIH Keywords: MLPCN, qHTS, NCGC, genotoxicity, cancer Assay Overview: Cancer cells divide rapidly compared to normal cells in the body. During cell division, cancer cells need to duplicate their genome by DNA replication. The failure of genome duplication leads to cancer cells' death. Therefore, inhibitors of DNA replication could specifically kill cancer cells. Based on this concept, many chemotherapeutic agents were developed and have been used to treat cancer patients. However, there are a limited number of agents available in the clinical setting, and some of those that do exist have low efficacy and severe side effects. […] With this in mind, we developed a quantitative high-throughput ELG1-luciferase reporter gene assay. […]
# Assay Protocol Summary: For genotoxicity screening, 2,000 cells in 4 uL/well were dispensed into white, solid-bottom 1536-well plates using a solenoid-based dispenser. […] 5 ul ONE-Glo (Promega) was then added to each plate and following a 30 min incubation at room temperature, luciferase activity was quantified on a ViewLux CCD-based plate reader.
# Potency is read from the fitted curve at half-maximal effect.
row,SMILES,Potency
1,O=C(CSc1ncnc2sccc12)N1CCN(C(=O)c2cccs2)CC1,"inconclusive: 16.4 µM [inhibitor, partial curve, poor fit]"
